Data taken from ChEMBL document CHEMBL3988442, “University of Dundee, Small-Polar-MMV Screening Library” (2021).

A: 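Whole-parasite assay of Trypanosoma brucei over 72 hours; the read-out is not stated. Compounds at 30 µM. Higher reads as stronger inhibition (inferred: compounds with an IC50 in retests scored well above the rest). Values scatter widely below zero; nearly all retest evidence comes from the higher of the two concentrations used. Of about 64,000 compounds tested this way, about 940 (1.5%) reached 50% or more in at least one test.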
B: 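Cell assay of Leishmania donovani living inside macrophages; the read-out is not stated. Tested at 30 µM. Direction is inferred from retests: higher values go with stronger inhibition. Of about 69,000 compounds tested this way, about 1,000 (1.5%) reached 50% or more in at least one test.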

Each number is a percent effect as filed. The record does not define 0% and 100%; most values in the screen are far below 50% and negative numbers occur (in some assays of this library far below -100). Compounds were drawn at random from those tested, without regard to their results. Two or more numbers in one place are separate tests of the same structure; such repeats can differ widely. A dash means the value is not listed here; it may have been measured.

With Cc1cccc(C(C(=O)NCCCc2ccncc2)N(C)C)c1 (stereo not given) the screen gave A: -8.587%; B: 33.94%. With CC(=O)N1CCCC(C(=O)c2cnn(-c3ccc(F)cc3)c2N)C1 (stereo not given) the screen gave A: -6.485%; B: 34.39%. With CO[C@H]1CN(C(=O)c2cccc(C)n2)CC[C@@]12CCCO2 the screen gave A: 1.605%; B: -4.031%. With CC(=O)N1CCN(C(=O)C2CCN(c3cccnn3)C2)CC1 (stereo not given) the screen gave A: 1.035%; B: 13.87% & 7.738%.

With Cc1ccc(OC2(C(=O)O)CCN(C(=O)CCc3ccco3)CC2)cn1 the screen gave A: -39.74%; B: 12.92%. Result for CN(C)C(=O)c1cc(-c2cnc(N)nc2)nc2cc(F)ccc12 was A: -33.83%; B: 23.99%. Result for Cc1c2c(C(F)F)cc(SCC(=O)O)nc2nn1C was A: -2.772%; B: 14.27%. CC(Cn1cccn1)NCc1nc(-c2cccc(Cl)c2)no1 (stereo not given) read A: 53.11%; B: 4.148%.

CC(C)c1nnc2n1CCN(C(C(N)=O)c1ccc(F)cc1)C2 (stereo not given) gave A: -7.527%; B: -11.05%. Cc1cnccc1-c1cnn(CCNC(=O)c2cccnc2)c1C1CC1.Cl gave B: 27.1%. O=C(N1CC(c2cccnc2)C1)C1(c2ccc(F)cc2)CCOCC1 read A: -8.353%; B: 12.26%. For CCNC(=O)CCC(=O)NC1(c2cccc(Br)c2)CC1 the result was A: -25.31%; B: -0.1153%.

With Cc1occc1C(=O)N1CCOC2(CCCC2)C1 the screen gave A: -2.936%; B: 12.45%. For COc1ccc(NC(=O)c2nc3ccccc3n(C)c2=O)cc1OC the result was A: -1.9%; B: -19.05%. Result for CCCc1cc(CNC2CCN(c3nc(C)cc(C)n3)CC2)on1 was A: -11.11%; B: 34.7%. Cc1oc(C(=O)O)cc1S(=O)(=O)Nc1cccc(-c2nccs2)c1 gave A: 3.606%; B: -2.37%.

Result for COCC(C)NC(=O)c1nnn(-c2ccc(OC)cc2)n1 (stereo not given) was A: -0.09044%; B: 14%. CCN(Cc1cccc(C)c1)Cn1nc(C)c2c(C)onc2c1=O gave A: 1.453%; B: -3.105%. Result for CC(C)(C)c1ncc2c(n1)CN(C(=O)c1ccc(-c3nc[nH]n3)cc1)C2 was A: 54.09%; B: 24.37%. Result for COC(=O)C(O)C1CCN(Cc2cccc(-n3cccn3)c2)CC1 (stereo not given) was A: -7.258%; B: 3.314%.

O=S(=O)(Cc1nc(C2CC2)no1)c1cc(F)ccc1F gave A: -15.84%; B: -7.319%. O=C(c1cnccn1)N1CCCC(Cc2ccccn2)C1 (stereo not given) gave A: -16.92%; B: 4.541%. With Cc1cnn(CC2CCCN2Cc2cc(C)on2)c1 (stereo not given) the screen gave B: 20.37%. Result for Cc1nn(C)c(Cl)c1C1CCCN1Cc1nnc(C2CC2)o1 (stereo not given) was A: 13.04%; B: 5.469%.

O=S(=O)(NCc1ccccc1)Nc1ccc(-n2cncn2)cc1 gave A: 47.46%; B: 10.69%. With COCCC1CN(c2nc(-c3ccccc3)nc3c2CCNC3)CCO1 (stereo not given) the screen gave A: -41.96%; B: 23%.

3 of the entries, repeated:

SMILES,A,B
CN(C)C(=O)c1cc(-c2cnc(N)nc2)nc2cc(F)ccc12,-33.83%,23.99%
Cc1cnccc1-c1cnn(CCNC(=O)c2cccnc2)c1C1CC1.Cl,-,27.1%
COCCC1CN(c2nc(-c3ccccc3)nc3c2CCNC3)CCO1 (stereo not given),-41.96%,23%